Results are given in words; binding and its absence hold for the method and conditions named.
Assays:
Test in all cases: two-hybrid; array-based Y2H matrix; preys in pACT2 (PJ69-4a) mated against 23 baits in pAS2-1 (PJ69-4α); growth on SD-Leu-Trp-His + 6 mM 3-AT greater than the negative control after 2 weeks
[1] = target: T1, Dbp10 (Y2H bait, pAS2-1) (S. cerevisiae) (UniProt Q12389)
T1 sequence: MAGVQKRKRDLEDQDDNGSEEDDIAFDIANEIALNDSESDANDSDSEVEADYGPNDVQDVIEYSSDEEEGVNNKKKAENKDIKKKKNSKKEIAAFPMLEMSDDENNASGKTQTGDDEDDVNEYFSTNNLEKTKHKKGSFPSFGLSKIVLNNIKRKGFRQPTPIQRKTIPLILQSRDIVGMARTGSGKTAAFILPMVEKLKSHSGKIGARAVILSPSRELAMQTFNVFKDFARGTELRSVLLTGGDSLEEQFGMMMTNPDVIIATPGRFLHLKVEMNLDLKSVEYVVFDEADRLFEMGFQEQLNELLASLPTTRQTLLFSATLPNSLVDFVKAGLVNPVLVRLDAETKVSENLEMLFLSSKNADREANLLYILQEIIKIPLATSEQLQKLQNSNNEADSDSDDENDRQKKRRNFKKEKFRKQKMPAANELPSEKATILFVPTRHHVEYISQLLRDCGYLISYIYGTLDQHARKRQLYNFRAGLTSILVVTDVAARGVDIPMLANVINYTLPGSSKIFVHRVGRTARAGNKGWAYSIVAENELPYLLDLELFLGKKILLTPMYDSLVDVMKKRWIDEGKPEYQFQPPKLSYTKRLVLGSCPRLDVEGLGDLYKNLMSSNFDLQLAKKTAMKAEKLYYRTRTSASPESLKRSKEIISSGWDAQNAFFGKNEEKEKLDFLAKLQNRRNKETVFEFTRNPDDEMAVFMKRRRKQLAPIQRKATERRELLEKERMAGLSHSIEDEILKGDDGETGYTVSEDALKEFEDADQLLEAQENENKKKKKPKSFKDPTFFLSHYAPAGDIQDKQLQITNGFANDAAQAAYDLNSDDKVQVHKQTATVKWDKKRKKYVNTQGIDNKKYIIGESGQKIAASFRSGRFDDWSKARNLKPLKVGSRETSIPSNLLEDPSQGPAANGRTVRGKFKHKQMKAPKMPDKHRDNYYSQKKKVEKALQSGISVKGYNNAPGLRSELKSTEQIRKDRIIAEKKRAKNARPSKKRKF

[2] = target: T2, Rrp12 (Y2H bait, pAS2-1) (S. cerevisiae) (UniProt Q12754)
T2 sequence: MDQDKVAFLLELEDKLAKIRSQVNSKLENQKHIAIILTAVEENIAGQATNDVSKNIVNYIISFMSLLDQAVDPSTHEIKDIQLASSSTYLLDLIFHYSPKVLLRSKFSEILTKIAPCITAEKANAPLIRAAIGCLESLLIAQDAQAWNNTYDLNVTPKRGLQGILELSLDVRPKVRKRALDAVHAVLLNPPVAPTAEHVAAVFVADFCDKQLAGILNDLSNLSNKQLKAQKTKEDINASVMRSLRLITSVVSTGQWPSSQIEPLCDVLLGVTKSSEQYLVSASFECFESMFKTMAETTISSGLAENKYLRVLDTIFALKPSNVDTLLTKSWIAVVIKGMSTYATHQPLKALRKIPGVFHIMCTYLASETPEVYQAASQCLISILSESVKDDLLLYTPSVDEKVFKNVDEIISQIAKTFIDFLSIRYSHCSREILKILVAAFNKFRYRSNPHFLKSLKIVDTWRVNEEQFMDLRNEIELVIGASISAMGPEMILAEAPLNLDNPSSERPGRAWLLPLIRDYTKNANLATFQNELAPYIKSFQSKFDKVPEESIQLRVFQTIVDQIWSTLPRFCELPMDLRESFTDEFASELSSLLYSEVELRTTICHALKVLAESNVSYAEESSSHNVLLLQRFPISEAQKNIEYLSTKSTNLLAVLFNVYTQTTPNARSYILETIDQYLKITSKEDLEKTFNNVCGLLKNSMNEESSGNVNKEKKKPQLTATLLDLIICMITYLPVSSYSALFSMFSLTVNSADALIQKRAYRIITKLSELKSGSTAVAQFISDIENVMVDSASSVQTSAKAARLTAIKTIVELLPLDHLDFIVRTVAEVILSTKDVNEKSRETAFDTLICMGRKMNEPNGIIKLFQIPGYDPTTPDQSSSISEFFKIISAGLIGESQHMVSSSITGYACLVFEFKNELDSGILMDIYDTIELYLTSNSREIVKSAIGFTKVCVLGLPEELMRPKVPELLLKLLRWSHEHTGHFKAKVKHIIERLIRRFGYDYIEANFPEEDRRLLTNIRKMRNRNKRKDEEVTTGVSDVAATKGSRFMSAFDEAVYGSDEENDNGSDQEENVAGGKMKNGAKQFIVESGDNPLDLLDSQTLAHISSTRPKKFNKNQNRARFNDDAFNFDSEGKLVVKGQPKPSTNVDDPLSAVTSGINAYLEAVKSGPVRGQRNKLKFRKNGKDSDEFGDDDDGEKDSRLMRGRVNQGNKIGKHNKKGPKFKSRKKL

[3] = target: T3, Tma16 (Y2H bait, pAS2-1) (S. cerevisiae) (UniProt Q08687)
T3 sequence: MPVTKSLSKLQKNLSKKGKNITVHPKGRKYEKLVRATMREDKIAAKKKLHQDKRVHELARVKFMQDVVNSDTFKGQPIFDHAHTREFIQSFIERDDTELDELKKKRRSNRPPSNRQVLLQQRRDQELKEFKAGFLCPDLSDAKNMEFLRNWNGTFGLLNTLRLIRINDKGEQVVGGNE

Measured: binding

B1: Nop4 RRM 1–2 (Y2H prey, pACT2) (domain or fragment, UniProt P37838 1-250)
chain: MEETIENVEVPSSNVSKQNDDGLDMKTLFVRSIPQDVTDEQLADFFSNFAPIKHAVVVKDTNKRSRGFGFVSFAVEDDTKEALAKARKTKFNGHILRVDIAKRRDRSKKTSEVVEKSTPESSEKITGQNNEDEDDADGEDSMLKGKPKLIIRNMPWSCRDPVKLKKIFGRYGTVVEATIPRKRDGKLCGFAFVTMKKISNCRIALENTKDLKIDGRKVAVDFAVQKNRWEDYKKAQPEMNDKDDNESGNE
no binding: all assays above

Source: PMC4859800
